Results as given in paper PMC4232260.
Results are given in words; binding and its absence hold for the method and conditions named.

Molecular target: AKAP-Lbc DH-PH domain (UniProt Q12802)
Assay: SEC; DH-PH domain alone on a size-exclusion column; both purified

B1: AKAP-Lbc DH-PH domain (domain or fragment, UniProt Q12802-2 1973-2342)
chain: KQLEAESWSRIIDSKFLKQQKKDVVKRQEVIYELMQTEFHHVRTLKIMSGVYSQGMMADLLFEQQMVEKLFPCLDELISIHSQFFQRILERKKESLVDKSEKNFLIKRIGDVLVNQFSGENAERLKKTYGKFCGQHNQSVNYFKDLYAKDKRFQAFVKKKMSSSVVRRLGIPECILLVTQRITKYPVLFQRILQCTKDNEVEQEDLAQSLSLVKDVIGAVDSKVASYEKKVRLNEIYTKTDSKSIMRMKSGQMFAKEDLKRKKLVRDGSVFLKNAAGRLKEVQAVLLTDILVFLQEKDQKYIFASLDQKSTVISLKKLIVREVAHEEKGLFLISMGMTDPEMVEVHASSKEERNSWIQIIQDTINTLNRD
For B1, which binding is on record?
The binding was “no binding”.
